Results are given in words; binding and its absence hold for the method and conditions named. In cells and extracts the contact can be indirect. Here binding means that the protein was enriched with, or labelled near, the bait; the list need not be complete.
Biological target: T1, NEPH1 (endogenous, podocytes) (human (endogenous in cultured human podocytes)) (UniProt Q96J84)
T1 sequence: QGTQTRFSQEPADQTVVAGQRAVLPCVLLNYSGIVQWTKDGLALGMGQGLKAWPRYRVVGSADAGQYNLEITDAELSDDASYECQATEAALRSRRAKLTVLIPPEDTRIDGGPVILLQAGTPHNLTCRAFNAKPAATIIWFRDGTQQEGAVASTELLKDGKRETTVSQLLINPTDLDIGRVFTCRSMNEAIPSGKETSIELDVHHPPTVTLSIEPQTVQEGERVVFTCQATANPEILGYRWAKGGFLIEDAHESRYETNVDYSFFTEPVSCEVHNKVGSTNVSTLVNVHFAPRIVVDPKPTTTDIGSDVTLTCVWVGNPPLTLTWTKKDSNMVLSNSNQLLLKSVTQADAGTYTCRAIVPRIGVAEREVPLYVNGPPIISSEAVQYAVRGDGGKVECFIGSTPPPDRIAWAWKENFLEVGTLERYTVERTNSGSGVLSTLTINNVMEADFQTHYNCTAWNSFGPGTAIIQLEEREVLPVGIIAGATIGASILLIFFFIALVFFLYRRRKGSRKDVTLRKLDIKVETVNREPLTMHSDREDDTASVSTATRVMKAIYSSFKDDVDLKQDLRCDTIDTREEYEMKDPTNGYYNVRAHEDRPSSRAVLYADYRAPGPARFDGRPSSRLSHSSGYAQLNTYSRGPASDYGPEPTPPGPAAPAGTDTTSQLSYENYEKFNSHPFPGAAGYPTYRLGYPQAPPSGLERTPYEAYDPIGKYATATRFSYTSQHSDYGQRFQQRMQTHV
Experiment: affinity purification with mass spectrometry

## SHP-2 (endogenous, podocytes) (from UniProt Q06124 1-593) (enzyme)
  binding: binds

— article doi:10.1101/2020.05.04.077941
